Literature values, collected in patent US20060136023A1 (priority 2004, published 2006).
Some results were stated once for a whole list of compounds, not compound by compound. At least one structure is not confirmed: it was looked up by name or label, or the drawing left a doubt.

Tested on: opiate receptor
Conditions: (+) versus (−) enantiomer

Row | Compound | ratio of opiate efficacy (+/−) between the enantiomeric forms
1 | CCC(=O)O[C@@]1(c2ccccc2)CCN(C)C[C@@H]1C [beta prodine] | 10 to 30 fold
2 | CCC(=O)OC1(c2ccccc2)CCN(C)CC1C (racemic) [alpha prodine, Alpha prodine] | 10 to 30 fold
